From paper PMC11405510 (Scientific Reports, 2024)

Target: T1, Ha006a (Helicoverpa armigera, UniProt D5G3E0)
T1 sequence (D5G3E0 25-548): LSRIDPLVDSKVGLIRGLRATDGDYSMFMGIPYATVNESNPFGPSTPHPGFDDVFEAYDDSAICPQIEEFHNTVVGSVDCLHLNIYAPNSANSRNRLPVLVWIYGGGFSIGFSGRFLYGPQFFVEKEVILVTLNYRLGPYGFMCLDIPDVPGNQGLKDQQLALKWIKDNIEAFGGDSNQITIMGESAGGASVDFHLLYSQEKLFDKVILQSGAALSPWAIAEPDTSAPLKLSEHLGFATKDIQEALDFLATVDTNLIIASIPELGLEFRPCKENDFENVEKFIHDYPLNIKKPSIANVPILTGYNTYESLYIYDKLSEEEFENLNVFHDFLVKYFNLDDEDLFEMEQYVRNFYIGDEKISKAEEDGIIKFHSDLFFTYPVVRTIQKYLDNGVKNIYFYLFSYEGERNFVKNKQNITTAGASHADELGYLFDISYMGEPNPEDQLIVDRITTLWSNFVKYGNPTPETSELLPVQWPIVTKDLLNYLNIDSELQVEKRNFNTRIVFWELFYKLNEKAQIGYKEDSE
Test: Differential scanning calorimetry of Ha006a-ligand complexes
Format: binding
Settings: DSC

COc1cc2c(cc1OC)C(=O)C(CC1CCN(Cc3ccccc3)CC1)C2 (stereo not drawn) [Donepezil, reference compound]
Tm1 (°C) ± SE (first thermal transition, 50 μM protein, non-two-state fit): Tm1 50.12 ± 0.45 °C | ΔH (molar heat enthalpy) (first transition (Tm1)): 117000 kcal/mol | ΔHv (van't Hoff enthalpy) (first transition (Tm1)): 47100 kcal/mol | Tm2 (°C) ± SE (second thermal transition): Tm2 63.42 ± 0.62 °C | ΔH (molar heat enthalpy) (second transition (Tm2)): 208000 kcal/mol | ΔHv (van't Hoff enthalpy) (second transition (Tm2)): 35100 kcal/mol | Tm3 (°C) ± SE (third thermal transition): Tm3 82.46 ± 0.79 °C | ΔH (molar heat enthalpy) (third transition (Tm3)): 124000 kcal/mol | ΔHv (van't Hoff enthalpy) (third transition (Tm3)): 35200 kcal/mol
